For one molecule, EC50 results are on record in US20160347813A1, “GLUCAGON ANALOGUES” (Zealand Pharma A/S, priority 2011, published 2016).

The chains behind the UniProt entries cited, without tags or fusion partners. Residues count along the entry.
UniProt P47871, 26-477: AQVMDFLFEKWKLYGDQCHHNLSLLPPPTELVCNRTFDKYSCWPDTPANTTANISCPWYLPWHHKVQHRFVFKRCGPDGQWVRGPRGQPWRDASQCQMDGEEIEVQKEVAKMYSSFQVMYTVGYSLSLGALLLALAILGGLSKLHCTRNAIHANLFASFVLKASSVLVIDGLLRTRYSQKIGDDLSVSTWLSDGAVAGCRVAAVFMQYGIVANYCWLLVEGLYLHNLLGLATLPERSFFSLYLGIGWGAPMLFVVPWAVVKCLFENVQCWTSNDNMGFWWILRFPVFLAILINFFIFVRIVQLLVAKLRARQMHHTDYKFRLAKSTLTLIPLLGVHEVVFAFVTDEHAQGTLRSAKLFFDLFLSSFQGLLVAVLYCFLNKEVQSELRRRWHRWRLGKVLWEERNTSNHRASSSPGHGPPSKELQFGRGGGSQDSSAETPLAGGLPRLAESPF

The target of this experiment is T1, human Glucagon-R (Homo sapiens, UniProt P47871).
T1 construct: The DNA encoding the Glucagon-R or the GLP-1-R was amplified by PCR using primers encoding terminal restriction sites for subcloning; expressed in transfected cells
Kind of experiment: Glucagon receptor efficacy assay (cAMP generation in HEK293 cells). It is filed as cell-based. The text has this: The DNA encoding the Glucagon-R or the GLP-1-R was amplified by PCR using primers encoding terminal restriction sites for subcloning. The 5′-end primers additionally encoded a near Kozak consensus sequence to ensure efficient translation. The fidelity of the DNA encoding the Glucagon-R and the GLP-1-R was confirmed by DNA sequencing. The PCR products encoding the Glucagon-R or the GLP-1-R were subcloned into a mammalian expression vector containing a neomycin (G418) resistance marker. The mammalian expression vectors encoding the Glucagon-R or the GLP-1-R were transfected into HEK293 cells by a standard calcium phosphate transfection method. 48 hr after transfection cells were seeded for limited dilution cloning and selected with 1 mg/ml G418 in the culture medium. Three weeks later 12 surviving colonies of Glucagon-R and GLP-1-R expressing cells were picked, propagated and tested in the Glucagon-R and GLP-1-R efficacy assays as described below. One Glucagon-R expressing clone and one GLP-1-R expressing clone were chosen for compound profiling.
On the day of analysis, growth medium was removed and the cells washed once with 200 μl Tyrode buffer. Cells were incubated in 100 μl Tyrode buffer containing increasing concentrations of test peptides, 100 μM IBMX, and 6 mM glucose for up 15 min at 37° C. The reaction was stopped by addition of 25 μl 0.5 M HCl and incubated on ice for 60 min. […]

The molecule `CCCCCCCCCCCCCCCC(=O)N[C@@H](CCC(=O)NCCCC[C@H](NC(=O)[C@H](CCC(=O)O)NC(=O)[C@H](CC(=O)O)NC(=O)[C@H](CC(C)C)NC(=O)[C@H](Cc1ccc(O)cc1)NC(=O)[C@H](CCCCN)NC(=O)[C@H](CO)NC(=O)[C@H](Cc1ccc(O)cc1)NC(=O)[C@H](CC(=O)O)NC(=O)[C@H](CO)NC(=O)[C@@H](NC(=O)[C@H](Cc1ccccc1)NC(=O)[C@@H](NC(=O)CNC(=O)[C@H](CCC(N)=O)NC(=O)[C@@H](CO)NC(=O)[C@@H](N)Cc1c[nH]cn1)[C@@H](C)O)[C@@H](C)O)C(=O)N[C@@H](CCCNC(=N)N)C(=O)N[C@@H](C)C(=O)N[C@@H](CCCCN)C(=O)N[C@@H](CC(=O)O)C(=O)N[C@@H](Cc1ccccc1)C(=O)N[C@H](C(=O)N[C@@H](CCC(=O)O)C(=O)N[C@@H](Cc1c[nH]c2ccccc12)C(=O)N[C@@H](CC(C)C)C(=O)N[C@@H](CC(C)C)C(=O)N[C@@H](CO)C(=O)N[C@@H](C)C(N)=O)[C@@H](C)CC)C(=O)O` [Compound 17] returned a concentration giving a half-maximal response (EC50) of 0.05 nM.

As usually defined, the EC50 is the concentration needed to bring the measured effect to its halfway point.
